In patent US20220372120A1 (GEMINI THERAPEUTICS SUB, published 2022):
No constants are given. Whether binding was seen depends on the method and setting. Some entries that bind do so weakly or less than the wild type.

The chains behind the UniProt entries cited, without tags or fusion partners. Residues count along the entry.
UniProt P08603, residues 19-1231: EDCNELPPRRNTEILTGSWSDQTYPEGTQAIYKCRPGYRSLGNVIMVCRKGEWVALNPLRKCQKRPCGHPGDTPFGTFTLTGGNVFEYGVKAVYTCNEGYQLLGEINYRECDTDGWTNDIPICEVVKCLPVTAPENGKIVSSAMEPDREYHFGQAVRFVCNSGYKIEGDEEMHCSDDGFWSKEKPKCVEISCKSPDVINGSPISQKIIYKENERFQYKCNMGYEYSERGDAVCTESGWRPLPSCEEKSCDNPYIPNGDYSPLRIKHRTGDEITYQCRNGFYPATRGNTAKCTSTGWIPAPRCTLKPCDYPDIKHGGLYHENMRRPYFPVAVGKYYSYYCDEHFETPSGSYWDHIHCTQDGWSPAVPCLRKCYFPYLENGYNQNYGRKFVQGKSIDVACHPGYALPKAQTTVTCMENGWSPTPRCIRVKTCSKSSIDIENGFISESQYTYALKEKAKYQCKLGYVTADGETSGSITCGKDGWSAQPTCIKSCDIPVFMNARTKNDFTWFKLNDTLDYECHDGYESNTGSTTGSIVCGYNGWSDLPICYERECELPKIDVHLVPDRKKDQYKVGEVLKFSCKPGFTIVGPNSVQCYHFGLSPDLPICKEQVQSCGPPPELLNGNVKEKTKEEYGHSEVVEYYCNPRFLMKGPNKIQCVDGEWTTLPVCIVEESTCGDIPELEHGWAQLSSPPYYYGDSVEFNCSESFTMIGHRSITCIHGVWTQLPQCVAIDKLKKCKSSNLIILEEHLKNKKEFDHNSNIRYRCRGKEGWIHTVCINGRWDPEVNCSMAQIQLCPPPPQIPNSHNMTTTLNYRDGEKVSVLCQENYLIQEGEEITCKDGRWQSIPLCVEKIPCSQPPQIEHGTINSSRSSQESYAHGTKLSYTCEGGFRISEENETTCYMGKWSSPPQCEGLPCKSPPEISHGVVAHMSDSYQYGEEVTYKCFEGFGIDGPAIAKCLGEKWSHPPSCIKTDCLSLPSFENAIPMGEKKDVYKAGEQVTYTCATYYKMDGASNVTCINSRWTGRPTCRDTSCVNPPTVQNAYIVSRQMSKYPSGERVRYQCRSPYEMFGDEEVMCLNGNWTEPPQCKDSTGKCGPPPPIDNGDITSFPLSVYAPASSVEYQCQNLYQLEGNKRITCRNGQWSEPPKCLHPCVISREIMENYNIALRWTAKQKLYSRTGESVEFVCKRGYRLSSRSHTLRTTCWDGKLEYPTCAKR

Target: Human purified factor H (human, UniProt P08603 19-1231)
Test: ELISA, mAb captured on RM-19 plate, biotinylated FH with excess unlabeled FH fragments

B1: FH.07 (antibody, V domains shown)
VH: QVQLQQSGPGLVQPSQSLSITCTVSDFSLARYGVHWIRQSPGKGLEWLGVIWSGGTADYNAAFISRLNINKDNSKSQVFFKMNSLQANDTAIYYCARNFGNYAVDYWGQGTS
VL: QIVLSQSPTFLSASPGEKVTVTCRASSSVKYMHWYQQKPGASPKPWIFATSNLASGVPARFSGSGSGTSYSLTISRVEAEDAATYYCQQWSIIPPTFGNGTKLELK
B1 was tested, and the binding was “binds”.
